Measured values reported in the supplement of paper PMC10849652.
The list shows a part of the results.

By UniProt entry, the sequences of proteins in these tests, tags left out. Where a name states a change or a piece, a line headed by the entry shows the natural chain unless it says otherwise.
UniProt Q9Y6B2: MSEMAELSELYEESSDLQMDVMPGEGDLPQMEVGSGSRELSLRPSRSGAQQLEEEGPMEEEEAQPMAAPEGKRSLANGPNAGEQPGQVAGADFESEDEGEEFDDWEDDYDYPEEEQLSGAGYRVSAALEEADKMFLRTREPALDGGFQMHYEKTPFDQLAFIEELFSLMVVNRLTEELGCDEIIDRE
UniProt Q7L9B9: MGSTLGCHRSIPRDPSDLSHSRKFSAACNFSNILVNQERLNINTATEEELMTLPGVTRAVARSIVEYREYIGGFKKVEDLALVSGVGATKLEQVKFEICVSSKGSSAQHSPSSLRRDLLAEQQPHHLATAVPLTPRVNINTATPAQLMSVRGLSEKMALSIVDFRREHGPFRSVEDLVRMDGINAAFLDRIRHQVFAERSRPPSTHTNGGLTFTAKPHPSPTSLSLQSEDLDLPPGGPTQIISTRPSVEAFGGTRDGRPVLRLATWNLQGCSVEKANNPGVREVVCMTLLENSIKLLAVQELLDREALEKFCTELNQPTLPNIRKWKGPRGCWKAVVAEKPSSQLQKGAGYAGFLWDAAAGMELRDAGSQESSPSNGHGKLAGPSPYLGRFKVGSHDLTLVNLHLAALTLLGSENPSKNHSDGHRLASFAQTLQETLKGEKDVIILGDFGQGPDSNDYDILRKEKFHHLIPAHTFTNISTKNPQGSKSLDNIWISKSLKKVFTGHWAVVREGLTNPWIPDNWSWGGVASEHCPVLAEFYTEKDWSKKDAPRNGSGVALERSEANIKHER
UniProt Q92782, whole entry, looked up: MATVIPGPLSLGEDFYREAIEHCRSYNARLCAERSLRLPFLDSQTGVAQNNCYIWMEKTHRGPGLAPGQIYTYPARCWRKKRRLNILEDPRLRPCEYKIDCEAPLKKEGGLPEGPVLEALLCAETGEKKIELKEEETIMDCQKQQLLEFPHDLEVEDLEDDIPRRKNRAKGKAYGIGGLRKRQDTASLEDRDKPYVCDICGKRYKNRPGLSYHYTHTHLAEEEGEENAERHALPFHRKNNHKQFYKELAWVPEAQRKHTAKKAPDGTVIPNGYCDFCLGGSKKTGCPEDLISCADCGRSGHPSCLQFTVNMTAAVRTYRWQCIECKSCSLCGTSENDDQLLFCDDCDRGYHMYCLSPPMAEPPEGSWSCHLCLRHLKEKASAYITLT
UniProt Q9NZJ0: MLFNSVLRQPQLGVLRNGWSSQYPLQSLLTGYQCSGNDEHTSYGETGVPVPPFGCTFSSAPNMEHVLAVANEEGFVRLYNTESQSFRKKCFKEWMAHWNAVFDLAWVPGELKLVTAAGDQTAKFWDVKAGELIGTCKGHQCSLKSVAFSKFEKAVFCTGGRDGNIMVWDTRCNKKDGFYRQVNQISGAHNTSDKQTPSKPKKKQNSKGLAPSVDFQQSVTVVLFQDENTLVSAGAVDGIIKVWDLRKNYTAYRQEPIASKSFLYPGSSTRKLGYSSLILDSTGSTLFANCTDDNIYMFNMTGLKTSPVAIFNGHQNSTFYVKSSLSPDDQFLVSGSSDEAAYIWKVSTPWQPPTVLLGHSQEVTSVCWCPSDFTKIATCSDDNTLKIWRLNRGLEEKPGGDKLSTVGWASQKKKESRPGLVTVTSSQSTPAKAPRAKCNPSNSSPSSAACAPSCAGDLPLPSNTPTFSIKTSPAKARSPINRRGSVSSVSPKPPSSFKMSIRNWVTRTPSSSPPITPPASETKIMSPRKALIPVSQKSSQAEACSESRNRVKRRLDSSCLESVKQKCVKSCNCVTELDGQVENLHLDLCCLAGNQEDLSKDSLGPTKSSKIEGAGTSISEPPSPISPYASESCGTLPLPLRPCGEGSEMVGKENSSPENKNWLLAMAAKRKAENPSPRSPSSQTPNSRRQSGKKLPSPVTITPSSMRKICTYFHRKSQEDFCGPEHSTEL
UniProt Q96FX2: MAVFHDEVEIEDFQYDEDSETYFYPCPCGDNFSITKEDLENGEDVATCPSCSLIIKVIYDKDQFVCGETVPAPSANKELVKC
UniProt Q92784, whole entry, looked up: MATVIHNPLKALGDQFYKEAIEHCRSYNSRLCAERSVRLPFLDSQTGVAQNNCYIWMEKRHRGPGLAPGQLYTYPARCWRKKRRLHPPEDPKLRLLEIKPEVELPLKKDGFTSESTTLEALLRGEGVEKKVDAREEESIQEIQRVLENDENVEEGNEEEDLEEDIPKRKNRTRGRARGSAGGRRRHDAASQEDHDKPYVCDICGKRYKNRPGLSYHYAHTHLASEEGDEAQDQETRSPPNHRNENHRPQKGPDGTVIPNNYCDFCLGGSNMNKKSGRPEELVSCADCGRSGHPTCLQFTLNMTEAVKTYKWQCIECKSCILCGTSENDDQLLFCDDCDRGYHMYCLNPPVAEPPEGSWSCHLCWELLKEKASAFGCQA
UniProt Q86Y13: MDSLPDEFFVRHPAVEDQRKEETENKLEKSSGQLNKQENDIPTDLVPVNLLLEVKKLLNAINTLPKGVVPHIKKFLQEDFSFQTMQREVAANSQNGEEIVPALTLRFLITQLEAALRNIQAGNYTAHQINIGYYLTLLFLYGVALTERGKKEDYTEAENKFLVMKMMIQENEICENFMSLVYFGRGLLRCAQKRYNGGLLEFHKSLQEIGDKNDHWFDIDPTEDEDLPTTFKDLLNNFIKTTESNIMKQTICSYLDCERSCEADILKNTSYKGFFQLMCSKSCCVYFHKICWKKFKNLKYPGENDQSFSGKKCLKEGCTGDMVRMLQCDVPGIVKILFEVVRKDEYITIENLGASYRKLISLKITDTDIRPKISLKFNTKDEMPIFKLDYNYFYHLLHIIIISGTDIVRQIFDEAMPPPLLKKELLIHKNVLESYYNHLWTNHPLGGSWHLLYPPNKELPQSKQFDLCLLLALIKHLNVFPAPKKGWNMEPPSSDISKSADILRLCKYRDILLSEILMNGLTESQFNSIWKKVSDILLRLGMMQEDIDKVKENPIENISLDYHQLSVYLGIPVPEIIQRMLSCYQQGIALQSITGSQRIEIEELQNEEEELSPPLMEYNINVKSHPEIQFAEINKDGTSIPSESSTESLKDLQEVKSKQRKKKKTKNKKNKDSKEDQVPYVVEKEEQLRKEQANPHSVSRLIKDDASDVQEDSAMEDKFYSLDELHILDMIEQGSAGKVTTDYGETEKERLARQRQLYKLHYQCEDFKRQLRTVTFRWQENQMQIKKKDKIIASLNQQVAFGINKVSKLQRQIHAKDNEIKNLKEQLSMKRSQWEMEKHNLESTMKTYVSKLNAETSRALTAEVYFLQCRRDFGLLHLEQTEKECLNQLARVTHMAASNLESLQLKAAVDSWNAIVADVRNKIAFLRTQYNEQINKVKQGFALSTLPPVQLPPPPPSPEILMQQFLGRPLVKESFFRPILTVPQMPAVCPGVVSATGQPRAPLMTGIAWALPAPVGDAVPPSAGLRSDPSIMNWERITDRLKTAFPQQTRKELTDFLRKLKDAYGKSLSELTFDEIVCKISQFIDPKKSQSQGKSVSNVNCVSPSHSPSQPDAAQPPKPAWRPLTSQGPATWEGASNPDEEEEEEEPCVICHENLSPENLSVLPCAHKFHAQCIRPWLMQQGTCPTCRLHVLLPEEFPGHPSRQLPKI
UniProt Q7Z388: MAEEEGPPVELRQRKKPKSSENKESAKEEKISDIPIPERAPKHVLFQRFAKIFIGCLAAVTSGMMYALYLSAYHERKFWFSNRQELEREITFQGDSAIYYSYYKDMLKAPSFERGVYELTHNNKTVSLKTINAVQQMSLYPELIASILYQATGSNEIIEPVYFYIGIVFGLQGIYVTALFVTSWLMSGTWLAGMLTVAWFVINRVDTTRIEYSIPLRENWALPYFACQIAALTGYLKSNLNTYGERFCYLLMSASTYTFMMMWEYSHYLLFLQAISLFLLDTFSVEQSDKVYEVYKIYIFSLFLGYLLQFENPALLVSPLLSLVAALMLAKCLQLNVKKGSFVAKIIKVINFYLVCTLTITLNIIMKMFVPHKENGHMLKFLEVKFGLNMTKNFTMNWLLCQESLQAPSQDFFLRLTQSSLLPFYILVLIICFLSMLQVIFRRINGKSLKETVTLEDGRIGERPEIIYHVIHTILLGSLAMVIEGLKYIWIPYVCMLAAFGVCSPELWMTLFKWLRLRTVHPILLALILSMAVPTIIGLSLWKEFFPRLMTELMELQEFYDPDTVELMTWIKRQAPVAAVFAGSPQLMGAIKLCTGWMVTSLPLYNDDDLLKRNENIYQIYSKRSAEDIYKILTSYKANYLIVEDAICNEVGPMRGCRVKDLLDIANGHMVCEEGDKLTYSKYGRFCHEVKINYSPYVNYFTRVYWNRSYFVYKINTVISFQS
UniProt P51808: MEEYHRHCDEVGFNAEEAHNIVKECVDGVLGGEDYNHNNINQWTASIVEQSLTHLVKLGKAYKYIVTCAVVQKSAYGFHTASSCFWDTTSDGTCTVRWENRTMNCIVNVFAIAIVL
UniProt Q9UII6: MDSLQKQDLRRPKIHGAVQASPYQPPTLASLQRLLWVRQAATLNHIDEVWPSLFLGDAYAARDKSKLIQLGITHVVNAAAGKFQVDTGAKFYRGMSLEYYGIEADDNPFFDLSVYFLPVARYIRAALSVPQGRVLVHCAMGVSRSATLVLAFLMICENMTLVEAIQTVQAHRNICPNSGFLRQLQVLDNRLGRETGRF
UniProt Q13409, whole entry, looked up: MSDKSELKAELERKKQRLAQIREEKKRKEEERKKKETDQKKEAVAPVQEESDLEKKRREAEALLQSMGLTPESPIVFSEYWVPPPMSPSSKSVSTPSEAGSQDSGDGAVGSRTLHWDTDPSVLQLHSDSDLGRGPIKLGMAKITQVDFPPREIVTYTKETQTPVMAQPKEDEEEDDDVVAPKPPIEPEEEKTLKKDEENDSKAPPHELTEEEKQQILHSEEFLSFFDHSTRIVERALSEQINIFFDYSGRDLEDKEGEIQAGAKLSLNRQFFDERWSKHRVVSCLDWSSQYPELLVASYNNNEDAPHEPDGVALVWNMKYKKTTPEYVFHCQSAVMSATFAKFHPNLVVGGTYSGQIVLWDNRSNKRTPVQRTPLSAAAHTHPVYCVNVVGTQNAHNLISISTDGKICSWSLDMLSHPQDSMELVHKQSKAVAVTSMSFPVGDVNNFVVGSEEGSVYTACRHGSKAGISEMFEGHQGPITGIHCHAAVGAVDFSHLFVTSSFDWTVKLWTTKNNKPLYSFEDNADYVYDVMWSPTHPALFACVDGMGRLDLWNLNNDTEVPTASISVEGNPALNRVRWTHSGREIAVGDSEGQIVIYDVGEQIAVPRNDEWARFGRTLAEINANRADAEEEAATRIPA
UniProt Q8NBA8: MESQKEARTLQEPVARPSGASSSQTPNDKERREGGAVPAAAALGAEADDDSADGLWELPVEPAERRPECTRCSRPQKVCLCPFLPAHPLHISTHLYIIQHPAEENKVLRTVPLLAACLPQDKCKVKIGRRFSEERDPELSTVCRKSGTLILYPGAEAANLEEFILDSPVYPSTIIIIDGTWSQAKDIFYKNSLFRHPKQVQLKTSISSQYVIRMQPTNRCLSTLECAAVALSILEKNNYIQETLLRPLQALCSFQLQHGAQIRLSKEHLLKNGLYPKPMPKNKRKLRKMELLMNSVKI
UniProt P32926: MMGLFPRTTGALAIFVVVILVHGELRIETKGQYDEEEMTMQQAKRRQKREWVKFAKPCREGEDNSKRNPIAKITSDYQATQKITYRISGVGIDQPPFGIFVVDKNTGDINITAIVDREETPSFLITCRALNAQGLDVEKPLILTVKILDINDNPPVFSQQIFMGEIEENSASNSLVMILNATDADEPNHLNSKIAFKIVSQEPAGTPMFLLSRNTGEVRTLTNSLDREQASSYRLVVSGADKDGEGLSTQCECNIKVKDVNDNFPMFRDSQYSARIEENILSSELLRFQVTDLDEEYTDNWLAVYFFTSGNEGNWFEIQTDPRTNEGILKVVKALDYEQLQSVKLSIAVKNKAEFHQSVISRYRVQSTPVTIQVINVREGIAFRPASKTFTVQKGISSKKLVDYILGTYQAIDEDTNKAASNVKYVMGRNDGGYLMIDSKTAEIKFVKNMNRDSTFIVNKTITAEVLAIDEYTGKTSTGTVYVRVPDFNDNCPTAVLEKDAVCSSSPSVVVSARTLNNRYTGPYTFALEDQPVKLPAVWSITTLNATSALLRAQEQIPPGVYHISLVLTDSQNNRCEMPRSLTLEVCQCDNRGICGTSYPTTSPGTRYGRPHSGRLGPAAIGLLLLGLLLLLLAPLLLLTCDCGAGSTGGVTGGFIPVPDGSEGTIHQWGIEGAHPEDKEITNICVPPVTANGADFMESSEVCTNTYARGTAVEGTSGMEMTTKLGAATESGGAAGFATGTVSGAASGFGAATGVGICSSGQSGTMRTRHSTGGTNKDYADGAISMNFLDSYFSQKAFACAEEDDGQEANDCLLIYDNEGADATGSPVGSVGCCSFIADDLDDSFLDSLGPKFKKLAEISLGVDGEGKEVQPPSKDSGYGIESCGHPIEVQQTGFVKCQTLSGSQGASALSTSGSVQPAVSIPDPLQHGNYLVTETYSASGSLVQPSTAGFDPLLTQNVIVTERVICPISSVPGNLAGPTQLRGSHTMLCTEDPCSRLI

Legend:
Assay in all cases: log2 fold change, soluble protein after heating vs DMSO (PISA); higher = thermal stabilisation; K562 lysate, 10 uM; active = over 0.2 and 3.5 SD of the protein, either way, in both replicates (recomputed)
ibrutinib = compound: C=CC(=O)N1CCC[C@@H](n2nc(-c3ccc(Oc4ccccc4)cc3)c3c(N)ncnc32)C1 [ibrutinib]
In short: (§1)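 K562 pellets were dounce-homogenised in PBS pH 7.4 containing 1 mM MgCl2, and the crude extract, at 1 mg/mL protein, was exposed to 10 μM compound for 30 min. Aliquots were heated for 3 min across 48°C-58°C, pooled, brought to 0.5% NP-40 at 4°C and spun at 21,000xg for 90 min, with the supernatant taken as soluble protein. TMTpro 16plex LC-MS/MS with equalised channel sums quantified that protein. Values are log-two fold changes in thermal stability relative to solvent controls, taken from duplicates.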

[1] = compound: CC(=O)c1cnc2ccc(-c3cc(Cl)c(O)c(Cl)c3)nc2c1N[C@H]1CC[C@H](CN(C)C)CC1
In short: as §1

ralimetinib = compound: CC(C)(C)Cn1c(N)nc2ccc(-c3[nH]c(C(C)(C)C)nc3-c3ccc(F)cc3)nc21 [ralimetinib]
In short: as §1

[2] = compound: CC(C)(O)CC(=O)NCCn1ccc2ncnc(Nc3ccc(Oc4cccc(C(F)(F)F)c4)c(Cl)c3)c21
In short: as §1

[3] = compound: CC(C)C1=C2N=C(C=C(N2N=C1)NCC3=CC=CC=C3)NCCCCCCN
In short: as §1

[4] = compound: CC1=C(C2=C(C=C1)C(=O)C3=CC=CC=C3N2CCCN)C
In short: as §1

[5] = compound: CC1=C(C=C(C=C1)NC(=O)C2=CC(=CC=C2)C(C)(C)C#N)NC3=CC4=C(C=C3)N=CN(C4=O)C
In short: as §1

[6] = compound: CC1=C(C=C(C=C1)NC(=O)C2=CC(=CC=C2)N(C)C)NC(=O)C3=CC=C(C=C3)O
In short: as §1

[7] = compound: CC1=CC=C(C=C1)SC2=C3C=C(SC3=CN=C2)C(=O)N
In short: as §1

[8] = compound: CC1=C(C(CC(=O)N1)C2=CC=C(C=C2)C(F)(F)F)C(=O)NC3=C(C=C4C(=C3)C=NN4)F
In short: as §1

Measured: log2 fold change

DTD2 (UniProt Q96FN9)
inactive: ibrutinib -0.188 | [1] -0.099 | ralimetinib 0.077 | [2] -0.225 | [3] -0.087 | [4] 0.038 | [5] -0.024 | [6] -0.033 | [7] 0.124

DYSF isoform 13 (UniProt O75923)
inactive: ibrutinib 0.085 | [1] -0.099 | ralimetinib -0.074 | [2] 0.104 | [3] 0.073 | [4] 0.038 | [5] -0.005 | [6] 0.047 | [7] -0.021

DSTYK (UniProt Q6XUX3)
inactive: ralimetinib 0.093 | [2] 0.014 | [3] 0.124 | [8] 0.076 | [5] 0.015 | [6] 0.195

EEF1D isoform 3 (UniProt P29692)
inactive: ibrutinib 0.081 | [1] 0.051 | [3] 0.005 | [5] -0.073 | [7] 0.009

DYNC1I1 (UniProt O14576)
inactive: [1] -0.006 | [3] 0.052 | [4] -0.071 | [7] 0.127

EID1 (UniProt Q9Y6B2)
inactive: ralimetinib -0.06 | [2] -0.042 | [3] -0.173 | [8] 0.05 | [4] -0.116 | [6] -0.008

DST isoform 3 (UniProt Q03001)
inactive: ibrutinib 0.005 | [3] -0.01

EGLN2 (UniProt Q96KS0)
inactive: ralimetinib -0.065 | [2] 0.055 | [5] -0.115 | [6] 0.162

DRAM2 (UniProt Q6UX65)
inactive: ibrutinib 0 | [1] -0.019 | [8] 0.041 | [5] 0.018 | [7] 0.01

EEPD1 (UniProt Q7L9B9)
inactive: [5] -0.338

DPF1 isoform 2 (UniProt Q92782)
inactive: ibrutinib -0.047 | [1] -0.018 | ralimetinib 0.176 | [2] -0.059 | [3] -0.108 | [4] 0.077 | [5] -0.024 | [6] 0.04 | [7] 0.059

DTL (UniProt Q9NZJ0)
inactive: ibrutinib 0.012 | ralimetinib 0.037 | [2] -0.024 | [3] -0.05 | [8] 0.041 | [4] -0.104 | [5] 0.071 | [6] -0.037

DPH3 (UniProt Q96FX2)
inactive: ibrutinib 0.248 | [4] -0.014 | [5] 0.25

DPF3 isoform 3 (UniProt Q92784)
inactive: ibrutinib -0.022 | [8] -0.137

DRAP1 (UniProt E9PQX9)
inactive: ibrutinib 0.114 | [1] -0.035 | [4] -0.047 | [7] -0.017

DZIP3 (UniProt Q86Y13)
inactive: [3] 0.036

DPY19L4 (UniProt Q7Z388)
inactive: ibrutinib 0.157 | ralimetinib -0.165 | [2] -0.078 | [3] 0.139 | [8] 0.066 | [4] 0.029 | [5] 0.16 | [6] 0.072

DYNLT3 (UniProt P51808)
inactive: [1] -0.225 | [3] 0.054 | [8] -0.006 | [5] -0.101 | [7] -0.196

EDEM2 (UniProt Q9BV94)
inactive: [1] -0.052 | ralimetinib 0.086 | [2] -0.142 | [3] 0.052 | [8] 0.01 | [4] 0 | [5] -0.147 | [6] 0.004 | [7] -0.153

DUSP13 isoform 4 (UniProt Q9UII6)
inactive: [3] -0.127

DYNC1I2 isoform 2 (UniProt Q13409)
inactive: ibrutinib -0.101 | [1] -0.032 | ralimetinib -0.04 | [2] -0.032 | [3] -0.017 | [4] 0.083 | [5] -0.019 | [6] -0.047 | [7] 0.012

DTWD2 (UniProt Q8NBA8)
inactive: ibrutinib -0.009 | [1] 0.026 | ralimetinib 0.085 | [2] -0.024 | [3] -0.107 | [8] 0.087 | [5] 0.005 | [6] 0.013 | [7] -0.038

DSG3 (UniProt P32926)
inactive: ibrutinib -0.01 | ralimetinib -0.063 | [2] -0.076 | [6] 0.022

DTX2 (UniProt Q86UW9)
inactive: ibrutinib 0.003 | [1] 0.063 | [3] 0.018 | [8] -0.018 | [4] -0.091 | [5] -0.06 | [7] 0.167

Fetched one by one from the entries so far (2):
DUSP13 isoform 4 (UniProt Q9UII6)
inactive: [3] -0.127

DSG3 (UniProt P32926)
inactive: ibrutinib -0.01 | ralimetinib -0.063 | [2] -0.076 | [6] 0.022

Following part

DSCAML1 (UniProt Q8TD84)
inactive: ibrutinib 0.07 | [1] 0.053 | ralimetinib 0.042 | [2] -0.067 | [8] -0.152 | [5] 0.052 | [6] 0.005 | [7] 0.093
